{"source": "patent US20100069400A1", "about": "“METHODS FOR TREATING INFLAMMATION AND RELATED CONDITIONS” (Ore Pharmaceuticals Inc., priority 2008, published 2010)", "test_system": "AP-1", "test": "TPA-induced AP-1:LUC reporter activation in skin of AP-1:LUC transgenic mice", "type": "in vivo", "settings": "irindalone 1 and 10 mg/kg p.o. (dose-dependent) or DEX 4.5 mg/kg i.p. one hour prior to topical TPA 10 μg", "note": "For at least one compound, name, drawing or mass did not settle the structure.", "data": [{"smiles": "C[C@@H]1C[C@H]2[C@@H]3CCC4=CC(=O)C=C[C@]4(C)[C@@]3(F)[C@@H](O)C[C@]2(C)[C@@]1(O)C(=O)CO", "note": "[dexamethasone]", "values": [{"measurement": "TPA-induced AP-1 activation in skin", "result": "qualitatively similar"}]}]}
